Results published in US20190030063A1.
Results are given in words; binding and its absence hold for the method and conditions named. Binding seen in cells or lysates may run through a third protein. Some results given as binding are weak or reduced against the parent protein; the word gives no strength.

By UniProt entry, the sequences of proteins in these tests, tags left out. Residues count along the entry.
UniProt P08050, residues 2-382: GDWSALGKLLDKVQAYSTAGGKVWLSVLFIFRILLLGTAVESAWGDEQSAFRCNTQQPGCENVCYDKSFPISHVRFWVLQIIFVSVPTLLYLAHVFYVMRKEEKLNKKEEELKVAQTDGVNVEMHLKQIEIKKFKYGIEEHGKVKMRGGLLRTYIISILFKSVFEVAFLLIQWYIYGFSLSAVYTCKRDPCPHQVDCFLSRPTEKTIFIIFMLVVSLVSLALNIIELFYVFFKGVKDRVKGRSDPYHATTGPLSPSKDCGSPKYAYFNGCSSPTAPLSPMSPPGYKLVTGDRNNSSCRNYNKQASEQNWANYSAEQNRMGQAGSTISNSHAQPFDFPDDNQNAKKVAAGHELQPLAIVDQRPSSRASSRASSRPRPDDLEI
UniProt A4GG66: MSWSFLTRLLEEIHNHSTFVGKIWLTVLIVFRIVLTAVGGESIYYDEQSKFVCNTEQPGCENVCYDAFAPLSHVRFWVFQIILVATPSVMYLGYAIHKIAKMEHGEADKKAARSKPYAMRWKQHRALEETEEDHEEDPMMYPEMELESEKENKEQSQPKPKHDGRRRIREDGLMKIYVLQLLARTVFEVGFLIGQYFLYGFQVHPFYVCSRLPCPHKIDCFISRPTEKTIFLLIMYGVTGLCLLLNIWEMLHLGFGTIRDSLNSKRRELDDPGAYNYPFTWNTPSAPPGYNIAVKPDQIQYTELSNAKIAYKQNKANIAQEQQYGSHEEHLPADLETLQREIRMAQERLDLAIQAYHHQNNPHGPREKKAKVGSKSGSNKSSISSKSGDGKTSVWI

Key:
[1] = target: rat Connexin 43 (Cx43), in rat ventricular tissue lysate (rat) (UniProt P08050); assay: co-immunoprecipitation from ventricular tissue lysate, immunoblot
[2] = target: rat Connexin 43 (Cx43), in rat ventricular tissue lysate (rat) (UniProt P08050); assay: co-immunoprecipitation with monoclonal anti-Cx43 on protein G sepharose, immunoblot with anti-Cx45 (FIG. 4A)
[3] = target: rat Connexin 45 (Cx45), expressed in rat ventricular tissue from rAAV.Cx45 (full-length rat Cx45 cDNA) (rat) (UniProt A4GG66); assay: co-immunoprecipitation from ventricular tissue lysate, immunoblot
[4] = target: rat Connexin 45 (Cx45), expressed in rat ventricular tissue from rAAV.Cx45 (full-length rat Cx45 cDNA) (rat) (UniProt A4GG66); assay: co-immunoprecipitation with monoclonal anti-Cx45 on protein G sepharose, immunoblot with anti-Cx43 (FIG. 4B)

Row | Substance | binding [1] | binding [2] | binding [3] | binding [4]
1 | rat Connexin 45 (Cx45), expressed in rat ventricular tissue from rAAV.Cx45 (full-length rat Cx45 cDNA) (from UniProt A4GG66 1-396) | binds | binds | – | –
2 | rat Connexin 43 (Cx43), in rat ventricular tissue lysate (from UniProt P08050 2-382) | – | – | binds | binds
